Test results: US8557776B2 (Bayer Pharma AG, priority 2006, dated 2013)

Assay: general procedure: Fmoc solid-phase peptide synthesis; Rink resin; diisopropylcarbodiimide / diisopropylethylamine; DCC, HOBt
Conditions: whole synthesis
[1] = scale 0.025 mmol, triflate salt
[2] = scale 0.065 mmol, triflate salt
[3] = on 0.065 mmol resin-bound peptide, scale 0.065 mmol, triflate salt

Substance | isolated mass [2] [mg] | isolated yield [2] [%] | isolated yield [3] [%] | other results
3-Cyano-4-(trimethylammonium)-benzoyl-Arg-Ava-Gln-Trp-Ala-Val-Gly-His(πMe)-Sta-Leu-NH2 trifluoracetic acid salt | – | – | – | isolated mass (scale 0.025 mmol, TFA salt): 10.8 mg; isolated yield (scale 0.025 mmol, TFA salt): 28%
3-Cyano-4-(trimethylammonium)-benzoyl-Arg-βAla-Gln-Trp-Ala-Val-Gly-His(3Me)-Sta-Leu-NH2 trifluoracetic acid salt | – | – | – | isolated mass (scale 0.025 mmol, TFA salt): 9.0 mg; isolated yield (scale 0.025 mmol, TFA salt): 24%
3-Cyano-4-(trimethylammonium)-benzoyl-Ava-Gln-Trp-Ala-Val-Gly-His(3Me)-Sta-Leu-NH2 trifluoracetic acid salt | – | – | – | isolated mass (scale 0.025 mmol, TFA salt): 11.1 mg; isolated yield (scale 0.025 mmol, TFA salt): 32%
3-Cyano-4-(trimethylammonium)-benzoyl-Ava-Gln-Trp-Ala-Val-Gly-His-(4-amino-5-methyl-heptanoic acid)-Leu-NH2 trifluoracetic acid salt | – | – | – | isolated mass (scale 0.025 mmol, TFA salt): 12.2 mg; isolated yield (scale 0.025 mmol, TFA salt): 35%
3-Trifluormethyl-4-(trimethylammonium)-benzoyl-Arg-Ava-Gln-Trp-Ala-Val-NMeGly-His(3Me)-Sta-Leu-NH2 | – | – | – | isolated mass [1]: 11.5 mg; isolated yield [1]: 29%
(2-Chloro-5-methanesulfonyl-4-trimethylammonium-benzoyl)-Val-βAla-Phe-Gly-NH2-triflate salt | 23.2 | 43 | – | –
(2-Nitro-5-trimethylammonium-benzoyl)-Val-βAla-Phe-Gly-NH2-triflate salt | 20.8 | 42 | – | –
(4-Trimethylammonium-2-bromo-benzoyl)-Gly-Phe-Ile-Gly-NH2-triflate salt | 12.5 | 24.6 | – | –
(4-Trimethylammonium-2-chloro-5-fluoro-benzoyl)-Val-βAla-Phe-Gly-NH2-triflate salt | 18.6 | – | 37 | –
(4-Trimethylammonium-2-chloro-benzoyl)-Trp-Ala-Val-Leu-NH2-triflate salt | 16.2 | 30.0 | – | –
(4-Trimethylammonium-2-cyano-benzoyl)-Arg-Val-Gly-Phe-NH2-triflate salt | 20.0 | 38 | – | –
(4-Trimethylammonium-2-fluoro-benzoyl)-Lys(N-dimethyl)-Ala-Gly-Leu-NH2-triflate salt | 24.7 | 45.0 | – | –
(4-Trimethylammonium-2-nitro-benzoyl)-Ser-Thr-Val-Gly-NH2-triflate salt | 16.3 | 35 | – | –
(4-Trimethylammonium-2.3-difluoro-benzoyl)-Val-Arg-Ser-Gly-NH2-triflate salt | 19.6 | 39.5 | – | –
(4-Trimethylammonium-2.6-difluoro-benzoyl)-Gly-Pro-Phe-Val-NH2-triflate salt | 9.75 | 19.6 | – | –
(4-Trimethylammonium-3-cyano-benzenesulfonyl)-Gly-Val-βAla-His(π-Me)-Gly-NH2-triflate salt | 30.5 | 55 | – | –
(4-Trimethylammonium-3-cyano-benzoyl)-Arg-Ala-His(π-Me)-Leu-NH2-triflate salt | 14.9 | 27.0 | – | –
(4-Trimethylammonium-3-cyano-benzoyl)-Ava-His(π-Me)-Sta-Leu-NH2-triflate salt | 21.6 | – | 38 | –
(4-Trimethylammonium-3-cyano-benzoyl)-Gly-Tyr-βAla-Val-NH2 | 19.8 | – | 40 | –
(4-Trimethylammonium-3-cyano-benzoyl)-N-MeGly-His(π-Me)-Sta-Leu-NH2-triflate salt | 16.0 | – | 29 | –

Substance | isolated mass [2] [mg] | isolated yield [2] [%] | isolated yield [3] [%] | other results
(4-Trimethylammonium-3-cyano-benzoyl)-Val-βAla-Arg-Gly-NH2-triflate salt | 20.3 | – | 47 | –
(4-Trimethylammonium-3-cyano-benzoyl)-Val-βAla-His(Π-Me)-Gly-NH2 triflate salt | 16.0 | – | 33 | –
(4-Trimethylammonium-3-cyano-benzoyl)-Val-βAla-His(π-Me)-Leu-NH2 triflate salt | 29.8 | – | 57 | –
(4-Trimethylammonium-3-cyano-benzoyl)-Val-βAla-Lys-Gly-NH2-triflate salt | 24.5 | – | 52 | –
(4-Trimethylammonium-3-cyano-benzoyl)-Val-βAla-Met-Gly-NH2-triflate salt | 17.4 | – | 37 | –
(4-Trimethylammonium-3-cyano-benzoyl)-Val-βAla-Phe-Gly-NH2 triflate salt | 22.2 | – | 46 | –
(4-Trimethylammonium-3-cyano-benzoyl)-Val-βAla-Trp-Gly-NH2-triflate salt | 20.8 | – | 41 | –
(4-Trimethylammonium-3-cyano-benzoyl)-Val-βAla-Tyr-Gly-NH2 triflate salt | 17.7 | – | 36 | –
(4-Trimethylammonium-3-fluoro-benzoyl)-Gly-Thr-Tyr-Ala-NH2-triflate salt | 20.0 | 41.6 | – | –
(4-Trimethylammonium-3-methanesulfonyl-benzoyl)-Gly-Phe-Val-Leu-NH2-triflate salt | 17.7 | 33 | – | –
(4-Trimethylammonium-3-nitro-benzoyl)-Thr-Val-Phe-Leu-NH2-triflate salt | 30.1 | 56 | – | –
(4-Trimethylammonium-3-trifluormethyl-benzoyl)-Val-βAla-His(π-Me)-Gly-NH2-triflate salt | 24.2 | – | 59 | –
(4-Trimethylammonium-3-trifluormethyl-benzoyl)-Val-βAla-Phe-Gly-NH2-triflate salt | 10.9 | 21.5 | – | –
(4-Trimethylammonium-3-trifluoromethoxy-benzoyl)-Val-βAla-Phe-Gly-NH2-triflate salt | 14.6 | 28 | – | –
(5-Trimethylammonium-2-bromo-benzoyl)-Val-βAla-Arg-Gly-NH2-triflate salt | 27.2 | 52 | – | –
(5-Trimethylammonium-2-chloro-benzoyl)-Val-βAla-Arg-Gly-NH2-triflate salt | 15.3 | 31 | – | –
(5-Trimethylammonium-2-cyano-benzoyl)-Val-βAla-Arg-Gly-NFI2-triflate salt | 18.6 | – | 38 | –
(5-Trimethylammonium-2-methanesulfonyl-benzoyl)-Val-βAla-Arg-Gly-NH2-triflate salt | – | 33 | – | –
(5-Trimethylammonium-2-trifluormethyl-benzoyl)-Val-βAla-Trp-Gly-NH2-triflate salt | 13.9 | 26 | – | –
